No constants are given. Whether binding was seen depends on the method and setting. Some entries that bind do so weakly or less than the wild type. Where a sequence is shown, tags or fusion partners need not be part of it.
Target: MreC from Helicobacter pylori (residues 37-248), GST removed by thrombin (H. pylori) (UniProt B5Z916)
Experiment: crystal structure; PBP2:MreC complex (GST removed), vapor diffusion at 20 °C, 5% PEG 6000, 50 mM citric acid pH 5.0, 9 mM ZnCl2; 2 PBP2 and 4 MreC in the asymmetric unit; both purified

B1: MreC from Helicobacter pylori (residues 37-248), GST removed by thrombin (domain or fragment, UniProt B5Z916 37-248)
chain: LMSAKNSLLDNIQAYFFQAKNIKEFQKERLILEALKLENADLKERLNSVYPLENPKMIYSPTFMTSFISLEDTHSVSLNPIVNLEENKIYGLVSHNQAIGIAVLEKGRLNGFLNAHKRCAYSVMIGKNQVLGFIGSNFKQELVVDFIVPSAEINIGDQVLTSGLDGIFGAGVFVGEVSSVEDHYTYKSAVLKNAFLSEAKLLRHVFLSDVKN
- binding: binds

From article PMC5626683
